These results are taken from paper PMC4267777.

Results are given in words; binding and its absence hold for the method and conditions named. A result given as binding can be weak or reduced; the word gives no strength.

Experiment [1] deals with packaging efficiency factor P6 of bacteriophage PRD1 (bacteriophage PRD1). In words: cryo-EM structure; mature wt PRD1 virion, purified particles, single particle reconstruction without icosahedral symmetry imposition at 12 Å; crystal structures of P3 and P31 docked; proteins assigned by comparison with procapsid and mutant particles.
Experiment [2] concerns the target P9/P6 portal complex at the unique vertex of bacteriophage PRD1 (bacteriophage PRD1). Described as above.

B1: packaging ATPase P9 of bacteriophage PRD1 (protein, UniProt P27381 1-227)
chain: MTIRMPNDRQRILVLGKTGTGKTCAAVWHLSQKDFKRKAWIVLNHKGDDLIDSIEGANHVDLNFRPKKPGLYIYHPIPDVDDAEVTQLLWDIHAMGDIGVYVDEGYMIPNRDPAFQALLTQGRSKKIPMIILSQRPVWLTRFAISESDFFQIFQLGDQRDRQTVQGFVPVDLEKLMQAPVNTVPALKKFHSIYYDVGANNCVIMTPVPTADAVLARFDLGKKRKQTL
As for B1, the binding result in experiment [1] is “binds”.

B2: major capsid protein P3 of bacteriophage PRD1 (protein, UniProt P22535 1-395)
chain: MAQVQQLTPAQQAALRNQQAMAANLQARQIVLQQSYPVIQQVETQTFDPANRSVFDVTPANVGIVKGFLVKVTAAITNNHATEAVALTDFGPANLVQRVIYYDPDNQRHTETSGWHLHFVNTAKQGAPFLSSMVTDSPIKYGDVMNVIDAPATIAAGATGELTMYYWVPLAYSETDLTGAVLANVPQSKQRLKLEFANNNTAFAAVGANPLEAIYQGAGAADCEFEEISYTVYQSYLDQLPVGQNGYILPLIDLSTLYNLENSAQAGLTPNVDFVVQYANLYRYLSTIAVFDNGGSFNAGTDINYLSQRTANFSDTRKLDPKTWAAQTRRRIATDFPKGVYYCDNRDKPIYTLQYGNVGFVVNPKTVNQNARLLMGYEYFTSRTELVNAGTISTT
As for B2, the binding result in experiment [2] was “binds”.
